PubChem BioAssay AID652243, Drosophila RNAi Screening Center | 2013

Aim: 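Fly genes required for human androgen receptor driven transcription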 (primary screen)
System: Drosophila S2R+ cells
Knock-down reagent: long dsRNA against Drosophila genes
Timing: 72 h (48 h, then 24 h hormone)
Treatment: synthetic androgen R1881 at 10 nM for 24 h
Measured: 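Per-well raw luminescence of the androgen-driven firefly reporter and of the Renilla control, two replicates each, without normalisation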
Direction: firefly reporter light: higher = more light from androgen-responsive reporter; Renilla control light: higher = more constitutive control signal (cell number, transfection)
Rule for the call: 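Hit when the log firefly-to-Renilla ratio dropped or increased by a fixed fold versus the mean of GFP or LacZ controls across duplicate plates; lowering cut given as 1.5 and as 3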
Meaning of the calls: active = hit: reporter lowered or raised; inactive = no hit
The screen tested about 24,000 reagents; below is a random part of those that have a named target and a result. Over the whole deposit, 246 (1%) were called active. 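Plates not normalised; calls are printed but the firefly/Renilla ratio behind them is not deposited; fold cut for lowering reported inconsistently.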 The raw values are shown without normalisation. Reagents against one gene are numbered here. A plus sign joins genes that one reagent is predicted to hit. Not stated in the record: the amount of reagent.

predicted target	dsRNA no.	firefly reporter light, replicate 1	firefly reporter light, replicate 2	Renilla control light, replicate 1	Renilla control light, replicate 2	call
CG6005	1	90476	88272	7.73e5	6.75e5	inactive
puc	1	85027	1.56e5	1.83e6	2.26e6	inactive
puc	2	2.49e5	3.30e5	6.99e5	6.81e5	inactive
puc	3					inactive
CG13038	1	2.65e5	2.99e5	2.77e6	2.88e6	inactive
CG33766	1	6.28e5	7.08e5	1.09e6	1.34e6	inactive
CG3526	1	3.85e5	4.31e5	2.96e5	2.43e5	inactive
CG3526	2	4.25e5	3.48e5	4.59e6	3.80e6	inactive
CG3526	3	7.83e5	7.24e5	1.27e6	1.44e6	inactive
Chsy	1	3.79e5	2.81e5	2.84e6	3.52e6	inactive
Chsy	2	7.62e5	7.45e5	2.04e6	1.22e6	inactive
CG2224	1	1.77e5	1.67e5	2.37e6	3.05e6	inactive
CG2224	2	6.47e5	5.39e5	5.18e5	6.30e5	inactive
Sgt	1	4.41e5	8.85e5	7.15e5	1.81e6	inactive
Sgt	2	6.89e5	8.49e5	8.71e5	9.47e5	inactive
CG6785	1	3.24e5	3.58e5	8.07e5	1.09e6	inactive
CG6785	2	7.31e5	8.16e5	9.42e5	1.16e6	inactive
rg	1	90959	50890	5.76e5	4.46e5	inactive
rg	2	3.26e5	2.82e5	2.45e6	2.33e6	inactive
rg	3	6.52e5	6.08e5	1.24e6	1.11e6	inactive
rg	4					inactive
rg	5					inactive
CG33923	1	9.25e5	6.42e5	2.07e6	1.67e6	inactive
TrissinR	1	1.20e5	1.86e5	1.47e6	1.54e6	inactive
TrissinR	2	72003	69684	1.54e6	9.21e5	inactive
TrissinR	3	1.37e5	1.09e5	1.02e6	9.51e5	inactive
TrissinR	4	7.26e5	6.32e5	8.60e5	8.96e5	inactive
TrissinR	5	4.24e5	3.20e5	7.27e5	4.84e5	inactive
CG33654	1	9.40e5	7.02e5	2.19e6	1.86e6	inactive
Iru	1	51691	65603	2.55e5	3.72e5	inactive
CG8475	1	7.73e5	8.25e5	1.96e6	1.63e6	inactive
CG32365	1	1.08e5	1.20e5	1.95e6	1.60e6	inactive
Cog1	1	47040	53453	4.71e5	3.38e5	inactive
CG42816	1	1.97e5	1.72e5	1.95e6	2.02e6	inactive
Skp2 + CG14645	1	82357	1.50e5	2.23e6	1.53e6	inactive
CG31909	1	6.70e5	4.96e5	1.89e6	1.76e6	inactive
CG31909	2	3.76e5	5.81e5	3.22e5	7.39e5	inactive
CG6083	1	1.72e5	1.54e5	1.91e6	1.69e6	inactive
CG6083	2	6.90e5	8.81e5	6.37e5	6.31e5	inactive
CG13983	1	1.90e5	1.95e5	1.97e6	1.34e6	inactive
CG13983	2	3.27e5	2.96e5	1.08e6	1.53e6	inactive
Cht8	1	3.02e5	2.35e5	1.69e6	1.25e6	inactive
Nin	1	4.69e5	6.31e5	9.29e5	1.13e6	inactive
Acp95EF + Spase22-23	1	1.78e5	2.39e5	2.36e6	3.00e6	inactive
Dysb	1	2.76e5	2.49e5	3.01e6	2.75e6	inactive
sing	1	6.01e5	6.49e5	2.89e6	2.91e6	inactive
Obp57a	1	9.84e5	8.46e5	2.23e6	1.51e6	inactive
Obp57a	2	5.63e5	4.23e5	4.47e5	5.85e5	inactive
CG34190	1	8.63e5	2.86e5	1.48e6	1.02e6	inactive
cry	1	1.70e5	2.28e5	2.35e6	2.70e6	inactive
RpL35A	1	82821	84587	1.63e6	1.86e6	inactive
CG18735	1	2.13e5	3.00e5	2.08e6	1.70e6	inactive
CG18735	2	6.13e5	5.82e5	8.52e5	7.39e5	inactive
Coprox	1	4.94e5	6.46e5	1.64e6	1.88e6	inactive
Coprox	2	3.48e5	4.29e5	7.61e5	1.32e6	inactive
CG5089	1	1.26e6	8.29e5	1.96e6	1.13e6	inactive
CG5089	2	9.27e5	8.74e5	1.01e6	8.42e5	inactive
Hpd	1	42054	47821	1.97e5	1.60e5	inactive
Hpd	2	2.16e5	1.54e5	4.07e5	6.86e5	inactive

Not a retest: 8 of the entries above.
predicted target	dsRNA no.	firefly reporter light, replicate 1	firefly reporter light, replicate 2	Renilla control light, replicate 1	Renilla control light, replicate 2	call
CG31909	1	6.70e5	4.96e5	1.89e6	1.76e6	inactive
CG31909	2	3.76e5	5.81e5	3.22e5	7.39e5	inactive
CG6083	1	1.72e5	1.54e5	1.91e6	1.69e6	inactive
CG6083	2	6.90e5	8.81e5	6.37e5	6.31e5	inactive
CG13983	1	1.90e5	1.95e5	1.97e6	1.34e6	inactive
CG13983	2	3.27e5	2.96e5	1.08e6	1.53e6	inactive
Cht8	1	3.02e5	2.35e5	1.69e6	1.25e6	inactive
Nin	1	4.69e5	6.31e5	9.29e5	1.13e6	inactive
